Assay results: the supplement of paper PMC9671908
Where a name gives a salt, the structure may show the parent alone. The list shows a part of the results. Most values come without repeats; read them as rough.

Legend:
[1] = test system: MIA PaCa-2 parental; assay: parental cell viability relative to untreated parental control; higher = more surviving cells; settings: treatment time: 9 days
[2] = test system: MIA PaCa-2 persister; assay: persister cell viability relative to untreated persister control; higher = more surviving persister cells; settings: treatment time: 9 days; cell state: persister (100 nM gemcitabine + 100 nM Torin1)

Row | SMILES | parental cell viability [1] | persister cell viability [2]
1 | Cc1cc(Nc2cc(Cl)nc(Oc3ccc([N+](=O)[O-])cc3)n2)n[nH]1 [Autophinib] (inhibitor concentration: 1µM) | 80% | 10%
2 | Cc1c(C(=O)Nc2ccc(N3C[C@@H](C)O[C@@H](C)C3)nc2)cccc1-c1ccc(OC(F)(F)F)cc1 [Sonidegib] (inhibitor concentration: 3µM) | 62% | 58%
3 | COc1c(OCCCN2CCOCC2)ccc2c1N=C(NC(=O)c1cnc(N)nc1)N1CCN=C21 [Copanlisib (BAY 80-6946)] (inhibitor concentration: 1µM) | 40% | 94.5%
4 | CCc1cnn2c(NCc3ccc[n+]([O-])c3)cc(N3CCCC[C@H]3CCO)nc12 [Dinaciclib] (inhibitor concentration: 30nM) | 95.5% | 101%
5 | Cn1cc(CNCC2CCN(c3ncc(C(=O)NO)cn3)CC2)c2ccccc21 (inhibitor concentration: 10nM) | 90% | 106%
6 | Cn1c(=O)n(-c2ccc(C(C)(C)C#N)cc2)c2c3cc(-c4cnc5ccccc5c4)ccc3ncc21 [Dactolisib] (inhibitor concentration: 1µM) | 105% | 90%
7 | NC1(Cc2ccc(Cl)cc2)CCN(c2ncnc3[nH]ccc23)CC1 (inhibitor concentration: 10µM) | 109% | 110%
8 | CN1CCN(c2ccc(-c3ccncc3-c3cc(F)c(O)c(F)c3)cc2)CC1 (inhibitor concentration: 1µM) | 90% | 215%
9 | CC(=O)O[C@@H]1[C@@H](OC(C)=O)[C@@H](O)[C@H](Oc2c(-c3ccc(O)cc3)oc3cc(O)cc(O)c3c2=O)O[C@H]1C (inhibitor concentration: 1µM) | 95% | 150%
10 | Cc1[nH]c2ccccc2c1CCNCc1ccc(/C=C/C(=O)NO)cc1 [Panobinostat] (inhibitor concentration: 10nM) | 97.5% | 50%
11 | CC(C)(C)c1cnc(CSc2cnc(NC(=O)C3CCNCC3)s2)o1 (inhibitor concentration: 30nM) | 91% | 63%
12 | CC(=O)N[C@@H](CC(=O)O)C(=O)N[C@@H](CCC(=O)O)C(=O)N[C@H](C(=O)N[C@@H](CC(=O)O)C(=O)CCl)C(C)C [Ac-DEVD-CMK (trifluoroacetate-salt)] (inhibitor concentration: 30µM) | 101% | 96.5%
13 | CS(=O)(=O)c1ccc(-c2cnc(N)c(C(=O)Nc3ccccc3)n2)cc1 (inhibitor concentration: 300nM) | 99.5% | 103%
14 | C[C@@H]1COCCN1c1cc(-c2ccnn2C)c2ccnc(-c3ccn[nH]3)c2n1 (inhibitor concentration: 30nM) | 100% | 1%
15 | CN1C(=O)C(c2c[nH]c3ccccc23)=C(c2c[nH]c3ccccc23)C1=O [Bisindolylmaleimide V] (inhibitor concentration: 30µM) | 100% | 430%
16 | CC[C@@H]1C(=O)N(C)c2cnc(Nc3ccc(C(=O)N[C@H]4CC[C@H](N5CCN(CC6CC6)CC5)CC4)cc3OC)nc2N1C(C)C [Volasertib] (inhibitor concentration: 100nM) | 12% | 100%
17 | O=C(Nc1cccc(Nc2ncc(Br)c(NCCc3cnc[nH]3)n2)c1)N1CCCC1 (inhibitor concentration: 10µM) | 20% | 330%
18 | C=C(F)C(=O)N1CCN(c2nc(OC[C@@H]3CCCN3C)nc3c2CCN(c2cccc4cccc(Cl)c24)C3)C[C@@H]1CC#N (inhibitor concentration: 1µM) | 60% | 151%
19 | COC(=O)c1ccc(O)c(NC(=O)COc2ccc(C34CC5CC(CC(C5)C3)C4)cc2)c1 (inhibitor concentration: 10µM) | 98.5% | 102%
20 | CC(C)C[C@H](NC(=O)[C@H](CCc1ccccc1)NC(=O)CN1CCOCC1)C(=O)N[C@@H](Cc1ccccc1)C(=O)N[C@@H](CC(C)C)C(=O)[C@@]1(C)CO1 [Carfilzomib] (inhibitor concentration: 1nM) | 100% | 96%
21 | O=C1C(Cl)=C(NCCN2CCOCC2)C(=O)c2ncccc21 (inhibitor concentration: 300nM) | 102% | 33%
22 | CCCc1cc(C)[nH]c(=O)c1CNC(=O)c1cc(-c2ccnc(N3CCN(C)CC3)c2)cc2c1cnn2C(C)C (inhibitor concentration: 10µM) | 77% | 107%
23 | O=C(Nc1cc(Oc2cc(F)c(NC(=O)C3(C(=O)Nc4ccc(F)cc4)CC3)cc2F)ccn1)C1CC1 [Altiratinib] (inhibitor concentration: 3µM) | 106% | 100%
24 | CN(C)C/C=C/C(=O)Nc1cc2c(Nc3ccc(F)c(Cl)c3)ncnc2cc1O[C@H]1CCOC1 [Afatinib] (inhibitor concentration: 1µM) | 98% | 92%

Entries of single compounds, quoted from the list. Order of values: parental cell viability [1]	persister cell viability [2]
Cn1cc(CNCC2CCN(c3ncc(C(=O)NO)cn3)CC2)c2ccccc21 (inhibitor concentration: 10nM) is entered as 90%	106%
Cc1[nH]c2ccccc2c1CCNCc1ccc(/C=C/C(=O)NO)cc1 [Panobinostat] (inhibitor concentration: 10nM) is entered as 97.5%	50%
